Earlier results in patent US20180291377A1, “Blood Brain Barrier Opening Agents and Uses Thereof” (Washington University, priority 2017, published 2018).
For at least one compound, name, drawing or mass did not settle the structure.

Tested on: brain tumor patients
Settings: background statement

Cn1nnc2c(C(N)=O)ncn2c1=O [temozolomide]
extension of the lifespan of patients: 3-4 months
